In PubChem BioAssay AID504834 (National Center for Advancing Translational Sciences (NCATS), 2011):
Values joined by “and” are separate entries in the source; they are usually repeats but may differ in a detail not shown here. Identical values can stand only once. In all, about 320,000 compounds went through this assay and about 22,000 (6.9%) were called active. Inconclusive means that the source gave no clear call. Such entries were picked first, then a sample of the others. Calls come from the whole dose curve; as a rule, active = well fitted inhibition curve with a large enough effect; inconclusive = small, poorly fitted or top-dose-only effect, or another doubt; inactive = no such curve, though single readings can be large or run the other way. Where the call is inconclusive, the potency comes from a doubtful curve fit.

Experiment: Primary qHTS for delayed death inhibitors of the malarial parasite plastid, 96 hour incubation
Conditions: P. falciparum luciferase reporter growth; series mostly up to 28.7 µM; activity change, negative = inhibition: at the top concentration
How it was run: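 P. falciparum expressing integrated firefly luciferase, in erythrocytes at 2% hematocrit, 0.05% parasitemia, incubated with compounds 96 h at 37 C, 5% CO2. Growth inhibition read as loss of luminescence; two-generation exposure targets delayed-death apicoplast inhibitors.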
% is set by controls: 0 for no effect and ±100 for the full control effect; potency is the fitted concentration of half-maximal effect.

Row | Compound | Potency | activity change, negative = inhibition
1 | COc1ccc(CCNC(=O)CSc2cn(Cc3cccc(C)c3)c3ccccc23)cc1OC | active: 9.28 µM | –
2 | COC(=O)c1c(NC(=O)CC2SC(N)=NC2=O)sc(C)c1C (centres undefined) | inconclusive: 0.928 µM [inhibitor, partial curve] | –
3 | CN(C)CC(=O)Nc1ccc2cn[nH]c2c1 | – | inactive: 5.42%
4 | O=C(NCC(c1ccco1)N1CCCC1)c1ccccc1Sc1ccc(C(F)(F)F)cc1[N+](=O)[O-] (centres undefined) | inconclusive: 18.5 µM [inhibitor, single point] | –
5 | O=C(N=C1SC2CS(=O)(=O)CC2N1Cc1ccccc1)C1CCCCC1 (centres undefined) | inconclusive: 11.7 µM [inhibitor, single point] | –
6 | Cc1ccc(S(=O)(=O)NCC(=O)OC(C)C(=O)NC(=O)NC2CCCCC2)cc1C (centres undefined) | – | inactive: -2.04%
7 | COc1cccc(NC(=S)NC2CC3CCCC(C2)N3CC(C)C)c1 (centres undefined) | – | inactive: 31.8%
8 | COC(=O)c1cc(NC(=O)Cn2c(=O)cnc3ccccc32)cc(C(=O)OC)c1 | – | inactive: 5.76%
9 | CCN1CCN(C(=O)C2CCN(Cc3cc(Cl)ccc3O)CC2)CC1 | inconclusive: 11.7 µM [inhibitor, single point] | –
10 | COc1ccc([C@H]2CC(=O)C=C(c3ccc4[nH]ccc4c3)C2)cc1OC | inconclusive: 5.22 µM [inhibitor, partial curve] | –
11 | CCc1nnc(NC(=O)COc2ccc3c(c2)OCO3)s1 | – | inactive: 27.4%
12 | COc1ccc(Cl)cc1C(=O)NNC(=O)C1COc2ccccc2O1 (centres undefined) | inconclusive: 8.28 µM [inhibitor, partial curve, poor fit] | –
13 | Cc1csc(SCC(=O)Nc2cc([N+](=O)[O-])ccc2F)n1 | inconclusive: 18.5 µM [inhibitor, single point] | –
14 | Cn1c(SCC2CCCO2)nnc1-c1cccc([N+](=O)[O-])c1 (centres undefined) | – | inactive: -28.6%
15 | COc1ccc(NC(=O)c2c(Cl)cnn2C)c(C)c1 | inconclusive: 18.5 µM [inhibitor, single point] | –
16 | CC(CN(C)C)CN1c2ccccc2Sc2ccc(C(F)(F)F)cc21 (centres undefined) | inconclusive: 19 µM [inhibitor, single point] | –
17 | CCOc1ccc(/C=C/C2=Cc3c(sc(NC(=O)CSc4n[nH]c(N)n4)c3C#N)C(C)(C)C2)cc1 | active: 8.28 µM | –
18 | Cn1c(SCC(=O)Nc2ccc(C(N)=O)cc2)nnc1-c1cccs1 | inconclusive: 18.5 µM [inhibitor, single point] | –
19 | COc1cc2c(cc1OC)CN(C(=O)CCOc1ccccc1C)CC2 | – | inactive: -1.68%
20 | COc1cc(/C=C2/C(=O)NN(c3ccc(Cl)cc3)C2=O)ccc1OC(=O)c1ccco1 | inconclusive: 0.131 µM [inhibitor, full curve, poor fit] | –
21 | CC(C)Sc1nsc2nc(=O)c(/C=C3\C=Nc4ccccc43)c(N)n12 | inconclusive: 13.1 µM [inhibitor, partial curve, poor fit] | –
22 | CCCc1cc(C(=O)Nc2ccc(C(=O)OC)cc2)cs1 | inconclusive: 14.7 µM [inhibitor, single point] | –
23 | CCN(CC)S(=O)(=O)c1ccc(C(=O)Nc2cc3oc4ccccc4c3cc2OC)cc1 | inconclusive: 13.1 µM [inhibitor, single point] | –

Row | Compound | Potency | activity change, negative = inhibition
24 | O=S(=O)(Cc1cc(-c2ccccc2Cl)no1)c1ccccc1 | – | inactive: 5.66%
25 | CC(C)(C)c1cc(NS(=O)(=O)c2ccc(Br)s2)no1 | – | inactive: -25.5%
26 | C=CCn1c(COc2ccc(F)cc2)nnc1SC(C)C(=O)NCC1CCCO1 (centres undefined) | inconclusive: 13.1 µM [inhibitor, partial curve, poor fit] | –
27 | COc1ccc(CNC(=O)C[C@H]2C(=O)N(Cc3ccccc3)C[C@@H]2Cc2ccccc2)cc1 | inconclusive: 13.1 µM [inhibitor, single point] | –
28 | CCN1CCN(Cc2c(O)ccc3c2O/C(=C\c2ccc(C)cc2)C3=O)CC1 | active: 2.33 µM | –
29 | COc1ccccc1NC(=O)c1nn(-c2cccc(C(F)(F)F)c2)ccc1=O | inconclusive: 4.15 µM [inhibitor, single point] | –
30 | O=c1c2ccccc2c(C=Nc2cccc(O)c2)c(O)n1-c1ccc2c(c1)OCO2 | inconclusive: 0.0026 µM [inhibitor, full curve, poor fit] | –
31 | Cc1ccccc1C(=O)Nc1ccc(C(=O)N/N=C/c2ccncc2)cc1 | – | inactive: 26.8%
32 | OC1(c2ccc(Cl)cc2)CCN(Cc2nc(-c3cnccn3)no2)CC1 | inconclusive: 11.7 µM [inhibitor, single point] | –
33 | CC(C)(C)c1csc(N/N=C/c2ccc(O)cc2)n1 | inconclusive: 18.5 µM [inhibitor, single point] | –
34 | Cc1ccc(/C([O-])=C(/C(=S)NCc2ccc3c(c2)OCO3)[n+]2ccc(N(C)C)cc2)c(C)c1 | – | inactive: -12.2%
35 | COc1ccc2c(c1)O[C@H](c1ccc3c(c1)OCO3)[C@@H](OC(=O)Nc1cc(OC)c(OC)c(OC)c1)C2=O | inconclusive: 18.5 µM [inhibitor, single point] | –
36 | O=C(CC(=O)c1cccc([N+](=O)[O-])c1)Nc1ccccc1Cl | inconclusive: 0.828 µM [inhibitor, full curve, poor fit] | –
37 | COC(=O)c1ccc(Oc2c(C)oc3c(CN4CCN(C)CC4)c(O)ccc3c2=O)cc1 | inconclusive: 18.5 µM [inhibitor, single point] | –
38 | COC(=O)C1=C(c2ccc(OC(F)(F)F)cc2)C[C@@H]2CC[C@H]1N2C(=O)NCCc1ccccc1 | inconclusive: 4.15 µM [inhibitor, partial curve] | –
39 | O=C(Nc1ccc2nc(-c3ccc(Br)o3)[nH]c2c1)c1cccs1 | inconclusive: 1.47 µM [inhibitor, full curve] | –
40 | CC(C)(C)C(=O)Cn1ncc(N2CCCC2)c(Br)c1=O | – | inactive: 276%
41 | CCOC(=O)c1c(CN2CCOCC2)n(C)c2cc(Br)c(O)c(CN(C)C)c12 | inactive and inconclusive: 928 nM [inhibitor, full curve, poor fit] | –
42 | Cc1nn(-c2ccccc2)c(C)c1-c1cc(C(=O)N/N=C/c2ccc(O)cc2)[nH]n1 | inconclusive: 5.86 µM [inhibitor, partial curve] | –
43 | Cc1cc(-c2ccc(C(C)C)c(S(=O)(=O)N3CCN(c4ccccn4)CC3)c2)on1 | inconclusive: 5.22 µM [inhibitor, partial curve, poor fit] | –
44 | CCOc1ccc(C2N(c3ccc(F)cc3)C(=O)C3CCCN32)cc1OC (centres undefined) | inconclusive: 0.131 µM [inhibitor, full curve, poor fit] | –
45 | O=Cc1ccc(C(=O)O)cc1 | – | inactive: 41.6%
46 | COc1cc([N+](=O)[O-])cc(/C=N\NC(=O)C2COc3ccccc3O2)c1O (centres undefined) | – | inactive: -3.72%

Row | Compound | Potency | activity change, negative = inhibition
47 | CC(C)OC(=O)c1ccc(S(N)(=O)=O)o1 | – | inactive: 52.7%
48 | COc1ccc([N+](=O)[O-])cc1NC(=O)C(C)OC(=O)C1CCCC1 (centres undefined) | inconclusive: 14.7 µM [inhibitor, partial curve, poor fit] | –
49 | COc1cc(OC)c(N(C)S(=O)(=O)c2cccc(C(=O)OCC(=O)c3c[nH]c4ccccc34)c2)cc1Cl | inconclusive: 2.08 µM [inhibitor, full curve, poor fit] | –
50 | CCN(CC)CCN(C(=O)c1cc2ccccc2cc1OC)c1nc2ccc(F)cc2s1 | inconclusive: 16.5 µM [inhibitor, single point] | –
51 | Cc1cc(NCCCn2ccnc2)n2nc(C)c(-c3ccccc3)c2n1 | active: 11.7 µM | –
52 | COCCNC(=S)NC1CC2CCCC(C1)N2Cc1cccs1 (centres undefined) | inconclusive: 18.5 µM [inhibitor, partial curve, poor fit] | –
53 | O=C(Nc1cccc(S(=O)(=O)NC2=NCCC2)c1)c1cc(Cl)ccc1[N+](=O)[O-] | – | inactive: 19%
54 | COC(C(=O)Nc1c(F)cccc1F)c1ccccc1 (centres undefined) | – | inactive: 20.5%
55 | O=[N+]([O-])c1ccc(O)c(/C=N/NC(=S)Nc2ccc(Cl)cc2Cl)c1 | active: 0.828 µM | –
56 | Cc1nnc(N2CCOCC2)c2nn(-c3ccccc3)c(C)c12 | inconclusive: 10.4 µM [inhibitor, partial curve] | –
57 | CCOc1ccccc1CN1CCNC(=O)C1CC(=O)NCc1nc(C)cs1 (centres undefined) | active: 9.28 µM | –
58 | CCOC(=O)N1CCN(S(=O)(=O)c2cccc3ccc(C)nc23)CC1 | – | inactive: 0%
59 | Cc1cccc(-n2ccnc2SCC(=O)Nc2nnc(C)s2)c1 | inconclusive: 5.22 µM [inhibitor, partial curve] | –
60 | COc1ccc(-c2c(C(C)=O)c(C)nc3sc4c(=N)n(N)cnc4c23)cc1 | inconclusive: 18.5 µM [inhibitor, single point] | –
61 | COc1cccc(C(C)NC(=O)Cc2cccs2)c1 (centres undefined) | inconclusive: 3.7 µM [inhibitor, single point] | –
62 | Cc1ccc2nc(N3CCOCC3)c3nncn3c2c1 | inconclusive: 7.38 µM [inhibitor, single point] | –
63 | O=C(NCc1ccco1)c1ccccc1-c1nc(-c2ccccc2)no1 | – | inactive: 51.4%
64 | CCN1CCN(c2ccc(S(=O)(=O)N3CCCCC3)cc2NC(=O)/C=C/c2ccc([N+](=O)[O-])cc2)CC1 | active: 1.85 µM | –
65 | Cc1ccc(/C=N/n2cc(-c3ccccc3)[nH]c2=S)s1 | inconclusive: 18.5 µM [inhibitor, single point] | –
66 | O=C1CCCC2=C1C(c1ccc3c(c1)OCO3)c1c([nH]n(-c3ccccc3)c1=O)N2 (centres undefined) | inconclusive: 4.15 µM [inhibitor, full curve] | –
67 | COc1ccc(N2CCC(CNC(=S)Nc3c(C)cc(C)cc3C)C2)cc1 (centres undefined) | inconclusive: 2.08 µM [inhibitor, full curve] | –
68 | NC(=O)NC(=O)COC(=O)c1ccccc1OCc1ccc(F)cc1 | – | inactive: 75%
69 | CC(=O)NCCc1nc2cc(NC(=O)COc3ccc(C)cc3)ccc2n1C | – | inactive: 0.617%
